Source: paper PMC7327804 (Data in Brief, 2020)
No constants are given. Whether binding was seen depends on the method and setting. In cells and extracts the contact can be indirect. Some entries that bind do so weakly or less than the wild type.

By UniProt entry, the sequences of proteins in these tests, tags left out.
UniProt P49407: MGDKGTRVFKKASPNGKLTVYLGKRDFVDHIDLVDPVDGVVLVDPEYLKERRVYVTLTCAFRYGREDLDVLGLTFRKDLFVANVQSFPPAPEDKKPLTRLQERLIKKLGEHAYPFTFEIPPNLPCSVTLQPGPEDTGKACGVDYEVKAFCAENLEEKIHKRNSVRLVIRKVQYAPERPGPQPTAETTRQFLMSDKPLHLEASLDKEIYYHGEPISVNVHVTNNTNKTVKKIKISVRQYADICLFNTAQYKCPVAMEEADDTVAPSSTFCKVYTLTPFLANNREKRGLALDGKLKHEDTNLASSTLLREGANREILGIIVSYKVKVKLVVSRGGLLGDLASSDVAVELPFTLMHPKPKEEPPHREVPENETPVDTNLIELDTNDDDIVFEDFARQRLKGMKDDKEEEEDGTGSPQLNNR

Target: hNTS1-GFP10 (human) (UniProt P30989)
Test: FRET or BRET; BRET2 in live CHO-K1 cells transiently transfected with hNTS1-GFP10 and RlucII-β-arrestin 1 or 2; stimulated with increasing concentrations of NT(8–13) or JMV2009 in HBSS with 20 mM HEPES; coelenterazine 400A 5 µM, 15 min at 37 °C

“RlucII-β-arrestin 1 (from UniProt P49407 1-418)” was tested, and the binding was “binds”.

For “RlucII-β-arrestin 2 (from UniProt P32121 1-409)”, the binding was “binds”.
